No constants are given. Whether binding was seen depends on the method and setting. In cells and extracts the contact can be indirect. Some entries that bind do so weakly or less than the wild type. Sequences can lack the tags named with a protein.
Target: T1, GST-tagged TIPE2 (full-length murine TIPE2) (murine) (UniProt Q9D8Y7)
T1 sequence: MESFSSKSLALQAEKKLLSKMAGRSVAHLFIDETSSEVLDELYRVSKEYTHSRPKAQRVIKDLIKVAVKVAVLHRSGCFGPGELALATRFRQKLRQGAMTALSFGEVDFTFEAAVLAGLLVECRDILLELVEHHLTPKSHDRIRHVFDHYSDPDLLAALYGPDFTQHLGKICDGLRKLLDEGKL
Experiment: pull-down

Chains of the proteins cited; added tags and fusions are not shown.
UniProt P60953: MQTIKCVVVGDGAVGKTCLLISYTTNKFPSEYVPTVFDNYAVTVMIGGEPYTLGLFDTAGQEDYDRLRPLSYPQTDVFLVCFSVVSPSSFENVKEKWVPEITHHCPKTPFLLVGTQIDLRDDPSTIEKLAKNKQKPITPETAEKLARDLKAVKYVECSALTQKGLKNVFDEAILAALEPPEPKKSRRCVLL
UniProt Q8TEW0: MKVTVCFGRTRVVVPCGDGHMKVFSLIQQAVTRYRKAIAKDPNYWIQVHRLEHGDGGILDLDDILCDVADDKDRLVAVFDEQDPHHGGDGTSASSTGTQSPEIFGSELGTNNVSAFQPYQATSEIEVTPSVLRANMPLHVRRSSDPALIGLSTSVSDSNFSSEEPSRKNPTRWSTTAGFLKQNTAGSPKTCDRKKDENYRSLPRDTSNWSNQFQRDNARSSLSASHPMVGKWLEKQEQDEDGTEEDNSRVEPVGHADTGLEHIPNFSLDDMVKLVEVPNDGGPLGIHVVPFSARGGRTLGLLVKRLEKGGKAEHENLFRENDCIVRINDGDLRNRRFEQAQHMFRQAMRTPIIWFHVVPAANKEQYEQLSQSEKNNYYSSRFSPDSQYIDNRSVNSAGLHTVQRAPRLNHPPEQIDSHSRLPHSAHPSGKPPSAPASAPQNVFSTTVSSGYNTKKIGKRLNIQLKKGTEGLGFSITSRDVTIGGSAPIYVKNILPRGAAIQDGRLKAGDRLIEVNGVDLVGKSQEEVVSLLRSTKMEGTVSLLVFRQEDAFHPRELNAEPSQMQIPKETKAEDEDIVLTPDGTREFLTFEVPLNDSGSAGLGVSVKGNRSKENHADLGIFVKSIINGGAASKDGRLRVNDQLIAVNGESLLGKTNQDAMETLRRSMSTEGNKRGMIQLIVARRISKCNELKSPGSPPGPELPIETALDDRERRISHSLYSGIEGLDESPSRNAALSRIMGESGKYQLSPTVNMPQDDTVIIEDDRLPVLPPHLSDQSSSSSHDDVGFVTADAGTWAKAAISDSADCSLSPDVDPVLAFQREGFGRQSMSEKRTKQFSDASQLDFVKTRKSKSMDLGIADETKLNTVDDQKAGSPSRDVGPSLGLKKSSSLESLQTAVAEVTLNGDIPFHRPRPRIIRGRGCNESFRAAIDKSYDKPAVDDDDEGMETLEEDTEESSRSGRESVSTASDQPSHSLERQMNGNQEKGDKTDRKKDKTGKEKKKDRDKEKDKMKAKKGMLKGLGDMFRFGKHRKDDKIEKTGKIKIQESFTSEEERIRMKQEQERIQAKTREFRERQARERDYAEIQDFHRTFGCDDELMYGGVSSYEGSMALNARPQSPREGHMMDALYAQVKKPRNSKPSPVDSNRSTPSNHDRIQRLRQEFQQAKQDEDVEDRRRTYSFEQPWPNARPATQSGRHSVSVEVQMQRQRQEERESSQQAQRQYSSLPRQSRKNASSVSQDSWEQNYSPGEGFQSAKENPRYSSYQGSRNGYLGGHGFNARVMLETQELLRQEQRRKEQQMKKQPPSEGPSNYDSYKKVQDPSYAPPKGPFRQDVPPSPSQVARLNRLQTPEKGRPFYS

Row | binding | Substance
1 | binds | Myc-tagged Cdc42 (wild type) (from UniProt P60953 1-191)
2 | binds | Par3 (from UniProt Q8TEW0 1-1356)

From publication doi:10.1101/2021.03.26.437243
